Some compounds share one range, which may span the group rather than tell each member.
Tested on: G. lamblia WB (MtzS)
Assay: ATP-bioluminescence growth/survival EC50 assay, G. lamblia WB
Details: versus 8f, 8g and 8h
Method: (§1) Compounds were screened for antiparasitic activity using an ATP-bioluminescence based assay for cell growth and survival, [24]. […] Viable cell numbers were determined in triplicate using the CellTiter-Glo Luminescent Cell Viability Assay.

SMILES | fold less active than the respective 1-methyl analogues, G. lamblia
CN(C)C(=O)c1ncc([N+](=O)[O-])[nH]1 [Compound 12g, N,N-dimethyl-5-nitro-1H-imidazole-2-carboxamide] | 3.5–5.5 fold
O=C(NCc1ccccn1)c1ncc([N+](=O)[O-])[nH]1 [Compound 12f, 5-nitro-N-(pyridin-2-ylmethyl)-1H-imidazole-2-carboxamide] | 3.5–5.5 fold
O=C(c1ncc([N+](=O)[O-])[nH]1)N1CCOCC1 [Compound 12h, Morpholino(5-nitro-1H-imidazol-2-yl)methanone] | 3.5–5.5 fold

Tested on: G. lamblia 713M3 (MtzR)
Assay: ATP-bioluminescence growth/survival EC50 assay, G. lamblia 713M3
Type: cell-based, Giardia lamblia
Details: not given
Method: as §1

SMILES | fold more active than metronidazole, MtzR G. lamblia
Cn1c([N+](=O)[O-])cnc1C(=O)NC1CCCCC1 [Compound 8k, N-cyclohexyl-1-methyl-5-nitro-1H-imidazole-2-carboxamide] | 3–12 fold
CC(NC(=O)c1ncc([N+](=O)[O-])n1C)c1ccc(F)cc1 (centres unmarked) [Compound 8d, N-(1-(4-fluorophenyl)ethyl)-1-methyl-5-nitro-1H-imidazole-2-carboxamide] | 3–12 fold
Cn1c([N+](=O)[O-])cnc1C(=O)NCc1ccccn1 [Compound 8f, 1-methyl-5-nitro-N-(pyridin-2-ylmethyl)-1H-imidazole-2-carboxamide.xTFA] | 3–12 fold
Cn1c([N+](=O)[O-])cnc1C(=O)N1CCCC1 [Compound 8i, (1-methyl-5-nitro-1H-imidazol-2-yl)(pyrrolidin-1-yl)methanone] | 3–12 fold
Cn1c([N+](=O)[O-])cnc1C(=O)NCc1cccc(OC(F)(F)F)c1 [Compound 8c, 1-methyl-5-nitro-N-(3-(trifluoromethoxy)benzyl)-1H-imidazole-2-carboxamide] | 3–12 fold

Tested on: E. histolytica HM1:IMSS
Assay: ATP-bioluminescence growth/survival EC50 assay, E. histolytica
Type: cell-based, Entamoeba histolytica
Details: not given
Method: as §1

SMILES | fold more potent than metronidazole, E. histolytica
CC(NC(=O)c1ncc([N+](=O)[O-])[nH]1)c1ccc(F)cc1 (centres unmarked) [Compound 12d, N-(1-(4-fluorophenyl)ethyl)-5-nitro-1H-imidazole-2-carboxamide] | 2–3 fold
Cc1ccc(CCNC(=O)c2ncc([N+](=O)[O-])[nH]2)cc1 [Compound 12e, N-(4-methylphenethyl)-5-nitro-1H-imidazole-2-carboxamide] | 2–3 fold
CN(C)C(=O)c1ncc([N+](=O)[O-])[nH]1 [Compound 12g, N,N-dimethyl-5-nitro-1H-imidazole-2-carboxamide] | 2–3 fold
O=C(NC1CCCCC1)c1ncc([N+](=O)[O-])[nH]1 [Compound 12k, N-cyclohexyl-5-nitro-1H-imidazole-2-carboxamide] | 2–3 fold

Tested on: T. vaginalis F1623
Assay: ATP-bioluminescence growth/survival EC50 assay, T. vaginalis
Type: cell-based, Trichomonas vaginalis
Details: not given
Method: as §1

SMILES | fold less potent than 12d, T. vaginalis
O=C(c1ncc([N+](=O)[O-])[nH]1)N1CCCC1 [Compound 12i, (5-nitro-1H-imidazol-2-yl)(pyrrolidin-1-yl)methanone] | 2–3 fold
Cc1ccc(CCNC(=O)c2ncc([N+](=O)[O-])[nH]2)cc1 [Compound 12e, N-(4-methylphenethyl)-5-nitro-1H-imidazole-2-carboxamide] | 2–3 fold
